In PMC8008188 one finds binding data, which are given here for one molecule.

Protein sequences, listed by entry. Tags and fused reporters are not part of them.
UniProt P13383: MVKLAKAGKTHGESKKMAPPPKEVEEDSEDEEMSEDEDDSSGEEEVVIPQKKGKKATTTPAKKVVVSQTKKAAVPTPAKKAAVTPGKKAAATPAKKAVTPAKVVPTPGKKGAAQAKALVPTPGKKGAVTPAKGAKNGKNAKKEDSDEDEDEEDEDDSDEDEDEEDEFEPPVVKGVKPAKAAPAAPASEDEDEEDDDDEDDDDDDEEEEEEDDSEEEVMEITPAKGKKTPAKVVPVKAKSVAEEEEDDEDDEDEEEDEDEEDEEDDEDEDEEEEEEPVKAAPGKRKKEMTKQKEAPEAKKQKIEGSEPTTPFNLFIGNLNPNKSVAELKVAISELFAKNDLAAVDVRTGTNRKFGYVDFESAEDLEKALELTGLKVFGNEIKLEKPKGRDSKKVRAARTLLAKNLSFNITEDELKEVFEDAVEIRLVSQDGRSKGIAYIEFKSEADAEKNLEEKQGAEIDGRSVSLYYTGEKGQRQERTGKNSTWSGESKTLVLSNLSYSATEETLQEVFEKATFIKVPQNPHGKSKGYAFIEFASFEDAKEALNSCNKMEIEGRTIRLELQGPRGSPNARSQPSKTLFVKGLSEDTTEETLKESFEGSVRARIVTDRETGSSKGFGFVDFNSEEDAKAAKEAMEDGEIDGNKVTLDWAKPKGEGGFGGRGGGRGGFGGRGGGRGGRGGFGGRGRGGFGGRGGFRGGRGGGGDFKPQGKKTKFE

These are yes or no findings as the source states them, for the method shown. Some binding calls cover weakened binding; strength is not graded here.

The target in this assay is nucleolin, 110 kDa, of UMR106-01 osteoblastic cultures (rat (endogenous in UMR106-01)) (UniProt P13383). Kind of assay: far-Western, overlay or dot blot; media, EDTA extracts and 8 M urea extracts of UMR106-01 cultures (+/-BGP, +/-AEBSF) resolved by SDS-PAGE, blotted onto PVDF, incubated with FAM-labeled peptide, fluorescence imager; bands identified by mass spectrometry and Edman sequencing; only the binder ….

B1: FAM-labeled Col11a1 NTD “6b” exon-derived peptide 5 (peptide)
peptide: KKKSKMSTTPKSEKFASKKKKR
modifications: 6-carboxyfluorescein (FAM) on the N-terminus
With B1, the binding result was “binds weakly”.
